Assay results: article PMC9704079, “Enhancement of the anticancer effect of atorvastatin-loaded nanoemulsions by improving oral absorption via multivalent intestinal transporter-targeting lipids” (Drug Delivery, 2022)
In brackets after ≈: the same amount, converted by molar mass. Values belong to the molecule of their own block, whether it stands above or below them.

Sequences of proteins named here, by UniProt entry; tags and fusion partners are left off.
UniProt P08183, whole entry: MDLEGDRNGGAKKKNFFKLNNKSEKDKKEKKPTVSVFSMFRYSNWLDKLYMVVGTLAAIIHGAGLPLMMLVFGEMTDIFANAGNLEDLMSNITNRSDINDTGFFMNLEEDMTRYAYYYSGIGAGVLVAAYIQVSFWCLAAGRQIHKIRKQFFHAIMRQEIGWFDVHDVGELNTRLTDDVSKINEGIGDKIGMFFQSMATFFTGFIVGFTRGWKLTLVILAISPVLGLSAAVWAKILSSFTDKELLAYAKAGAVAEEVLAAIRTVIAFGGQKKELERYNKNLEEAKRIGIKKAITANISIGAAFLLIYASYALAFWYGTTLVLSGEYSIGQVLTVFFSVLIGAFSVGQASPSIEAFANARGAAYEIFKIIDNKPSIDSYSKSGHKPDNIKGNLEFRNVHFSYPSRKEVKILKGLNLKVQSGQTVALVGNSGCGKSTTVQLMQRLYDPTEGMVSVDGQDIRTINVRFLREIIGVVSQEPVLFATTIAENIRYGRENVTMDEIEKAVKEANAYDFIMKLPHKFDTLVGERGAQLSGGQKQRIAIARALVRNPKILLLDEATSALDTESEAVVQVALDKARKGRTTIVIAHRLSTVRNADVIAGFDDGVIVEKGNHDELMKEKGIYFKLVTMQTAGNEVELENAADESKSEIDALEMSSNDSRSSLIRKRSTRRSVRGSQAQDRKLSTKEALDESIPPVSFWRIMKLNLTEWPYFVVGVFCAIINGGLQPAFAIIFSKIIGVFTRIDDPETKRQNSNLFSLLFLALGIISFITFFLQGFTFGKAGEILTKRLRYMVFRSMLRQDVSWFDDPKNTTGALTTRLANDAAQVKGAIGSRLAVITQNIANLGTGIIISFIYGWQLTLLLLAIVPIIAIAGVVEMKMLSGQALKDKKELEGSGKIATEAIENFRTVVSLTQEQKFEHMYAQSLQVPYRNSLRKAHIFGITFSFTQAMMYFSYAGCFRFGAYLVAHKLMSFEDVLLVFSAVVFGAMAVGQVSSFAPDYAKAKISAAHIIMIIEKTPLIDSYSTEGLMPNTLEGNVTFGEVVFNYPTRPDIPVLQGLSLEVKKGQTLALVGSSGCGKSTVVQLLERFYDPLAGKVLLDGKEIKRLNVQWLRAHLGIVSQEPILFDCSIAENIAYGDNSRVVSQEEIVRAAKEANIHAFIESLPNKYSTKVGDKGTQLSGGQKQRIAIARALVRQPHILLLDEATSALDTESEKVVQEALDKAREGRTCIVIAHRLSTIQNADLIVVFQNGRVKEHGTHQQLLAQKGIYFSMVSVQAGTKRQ

How the values were obtained:
[1] = In vivo oral absorption (pharmacokinetics) in rats; conditions: 40 mg/kg ATV, mean ± SD
in vivo = conditions: Sprague-Dawley, rat, plasma
[2] = system: human ASBT gene-transfected MDCK cells; assay: Confocal cellular uptake in ASBT-transfected or non-transfected MDCK cells with or without SMVT inhibitor; assay type: cell-based, canine; conditions: 1 h, equivalent to 100 µg/mL ATV
Experimental: After DOCA-TAP and/or Biotinyl PE had been anchored onto the NEs, the enhancement of intestinal permeability of ATV from the ATV-NEs (via interactions with bile acid transporters and multivitamin transporters) was evaluated using human ASBT gene-transfected Mardin–Darby canine kidney (MDCK) cells (ATCC® CCL-34™) in the presence or absence of SMVT inhibitor (i.e., PA). Briefly, MDCK cells were seeded at a density of 1 × 10^4 cells/coverslip and then transfected with the human ASBT gene (SLC10A2 human cDNA open reading frame [ORF] clone; OriGene Technologies, Inc., Rockville, MD, USA) by using Lipofectamine 2000® and P300™ (Thermo Fisher Scientific). After the formation of a confluent monolayer, the cells were treated with 100 µL of coumarin 6 and ATV dispersed in water or 0.5% DMSO, or coumarin 6-coloaded ATV-NE#1, ATV-NE#3, ATV-NE#4, ATV-NE#5, and ATV-NE#6 at a concentration equivalent to 100 µg/mL ATV, in the absence or presence of PA. After incubation for 1 h, the cells were washed three times with ice-cold PBS (pH 7.4), then fixed with 4% formaldehyde and blocking buffer (0.3% Triton X-100 and 10% normal goat serum in PBS, pH 7.4). Next, they were incubated overnight with anti-human ASBT antibody (1:500) and stained with 10 µg/mL Alexa Fluor-546-labeled secondary antibody for 1 h. […] Fluorescence images were examined by confocal laser scanning microscopy.

in vitro [3] = assay type: cell-based, murine; conditions: mouse
Experimental: (§1) To evaluate the cytotoxic effects of ATV-NEs, 4T1 (murine stage IV breast cancer) or MCF-7 (human breast adenocarcinoma) cells were seeded in 96-well plates at a density of 1 × 10^4 cells/well in 100 µL of Roswell Park Memorial Institute medium or Dulbecco’s Modified Eagle’s Medium supplemented with 10% FBS, 1% penicillin/streptomycin, and 1% non-essential amino acids. […]. After incubation for 1 h, the absorbance at 450 nm was measured and the percentage of viable cells was calculated by comparison with the absorbance of untreated cells (100% viability).

in vitro [4] = assay type: cell-based; conditions: human
Experimental: as §1

P-gp = target: T1, P-gp (Homo sapiens, UniProt P08183); assay: P-gp efflux: net apparent permeability ratio with or without Cys A; assay type: in vitro ADME; conditions: from NAPR values
T1 construct: a Caco-2/HT-29 MTX-E12 cell monolayer was prepared as described above; endogenous in cells; host or cells: Caco-2/HT-29 MTX-E12 co-culture monolayer

[5] = system: 4T1 (murine stage IV breast cancer) cells; assay: cells; assay type: cell-based; conditions: Mus musculus; 4T1 cells, treatment for 24 h
Experimental: as §1

SMILES: CC(C)c1c(C(=O)Nc2ccccc2)c(-c2ccccc2)c(-c2ccc(F)cc2)n1CC[C@@H](O)C[C@@H](O)CC(=O)O [ATV in 10% DMF, Atorvastatin]
Tmax ([1]; n = 4): 4.00 ± 0.00 h
AUCinf ([1]; n = 4, 40 mg/kg): 283 ± 32.5 ng·h/mL
AUClast ([1]; n = 4, 40 mg/kg): 256 ± 49.9 ng·h/mL
Cmax ([1]; n = 4, 40 mg/kg): 39.2 ± 3.95 ng/mL

SMILES: CC(C)c1c(C(=O)Nc2ccccc2)c(-c2ccccc2)c(-c2ccc(F)cc2)n1CC[C@@H](O)C[C@@H](O)CC(=O)O [ATV-IP, Atorvastatin]
AUC(0-inf) (in vivo; ip, 2 mg/kg): 220 ± 4.94 ng·h/mL
AUC(0-t) (in vivo; ip, 2 mg/kg): 211 ± 4.84 ng·h/mL
Cmax (in vivo; ip, 2 mg/kg): 82.5 ± 2.28 ng/mL
Tmax (in vivo; ip, 2 mg/kg): 0.5 h

Now from value to molecule, other results behind:

AUC(0-inf) (in vivo; po, 40 mg/kg): 149 ± 13.5 ng·h/mL
Cmax (in vivo; po, 40 mg/kg): 28.1 ± 2.94 ng/mL
Tmax (in vivo; po, 40 mg/kg): 4 h
AUClast ([1]; n = 4, 40 mg/kg): 117 ± 7.03 ng·h/mL
SMILES: CC(C)c1c(C(=O)Nc2ccccc2)c(-c2ccccc2)c(-c2ccc(F)cc2)n1CC[C@@H](O)C[C@@H](O)CC(=O)O [ATV in water, Atorvastatin]
Cellular uptake of coumarin 6 by ASBT-expressing or non-transfected MDCK cells with or without SMVT inhibitor PA (confocal, in words) [2]: did not reveal any variation in cellular uptake
viability at 24 h, 200 µg/mL (in vitro [3]): 80.5%
viability at 24 h, 200 µg/mL (in vitro [4]): 74.8%

P-gp substrate status (in words) (P-gp): substrate of P-gp
SMILES: CC(C)c1c(C(=O)Nc2ccccc2)c(-c2ccccc2)c(-c2ccc(F)cc2)n1CC[C@@H](O)C[C@@H](O)CC(=O)O [ATV, Atorvastatin]

IC50 [5]: 256 ± 2.03 µg/mL (≈ 458 µM)
SMILES: CC(C)c1c(C(=O)Nc2ccccc2)c(-c2ccccc2)c(-c2ccc(F)cc2)n1CC[C@@H](O)C[C@@H](O)CC(=O)O [ATV in 0.5% DMSO, Atorvastatin]
Cellular uptake of coumarin 6 by ASBT-expressing or non-transfected MDCK cells with or without SMVT inhibitor PA (confocal, in words) [2]: did not reveal any variation in cellular uptake
